Experimental data taken from the supplement of paper PMC10338343.
± gives the standard deviation. This is a selection; strong and weak results do not stand in their true shares. Many entries were measured with a wide error.

Key:
[1] = test system: MILI (PIWIL2) piRISC loaded with piRNA #1 (26 nt); test: pre-steady-state target cleavage rate (min^-1); MIWI and MILI are mouse PIWI proteins and EfPiwi is from a freshwater sponge; tags in brackets are library labels; higher = faster piRNA-guided slicing of the target; settings: guide: piRNA #1 5'p-UGAGGUAGUAGGUUGUAUAGUAUCCA; auxiliary factor: 500 nM mouse GTSF1
In short: (§1)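 In this Cleave-'n-Seq assay, uncleaved targets were sequenced and normalised to depth and to weakly complementary targets. They came from a transcribed, DNA-blocked target RNA library […] mixed with 1 nM active affinity-purified piRISC carrying one synthetic guide, with or without 500 nM GTSF1 partner protein, in HEPES–potassium acetate buffer at 33 °C for 0–8 or 0–960 min. After three trials were pooled and k3 was capped at 0.0001 min^-1, the pre-steady-state cleavage rate was obtained from a burst-and-steady-state fit.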

[2] = test system: MIWI (PIWIL1) piRISC loaded with piRNA #1 (30 nt); test: as above; settings: guide: piRNA #1 5'p-UGAGGUAGUAGGUUGUAUAGUAUCCAGAGG; auxiliary factor: 500 nM mouse GTSF1
In short: as §1
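Note: 1 nM active piRISC with 0.1 nM target library at 33 °C single turnover.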

Row | Sequence | pre-steady-state target cleavage rate [1] | pre-steady-state target cleavage rate [2]
1 | GGAGACCUAUGAAUACAACCAACUACCUGA | 0.00177 ± 0.0038 | 0.000415 ± 0.0073
2 | GGAGACCUAUGUAUACAACCAACUACCUGA | 0.00218 ± 0.0029 | 0.00148 ± 0.0042
3 | GGAGACCUAACUAUACAACCUUACUACCUCA | 0.00148 ± 0.011 | 0.00025 ± 0.02
4 | GGAGACCUAUGAUAUCAUCCUACUACCACA | 0.00107 ± 0.0047 | 0.00024 ± 0.0095
5 | GGAGACCUAUGAUAUCAACCUACUACCUCCA | 0.00207 ± 0.003 | 0.000278 ± 0.0069
6 | GGAGACCUAUGAAUACAACCAACUUCCUCA | 0.00215 ± 0.004 | 0.000974 ± 0.0072
7 | GGAGUGGAUACUAUACAACCGUACUACCUCA | 0.00369 ± 0.0022 | 0.000897 ± 0.0065
8 | GGAGACCUAUGAUAUCAACCAACUACCUGA | 0.000321 ± 0.0085 | 0.000273 ± 0.0058
9 | GGAGACCUUACUAUACAACCUACACCUCA | 0.00208 ± 0.0042 | 0.000337 ± 0.013
10 | GGAGACCUAUGAUAACAACGUUCUACCUCA | 0.000845 ± 0.0049 | 0.00039 ± 0.0094
11 | GGAGACCUAUGAUAUCAACCUACUACCAUCA | 0.001 ± 0.0066 | 0.000177 ± 0.011
12 | GGAGACCUAUGAUAUCAACCUACUAUCCUCA | 0.00268 ± 0.0037 | 0.00037 ± 0.0067
13 | GGAGACCUAUGAUAUCAACCUACUCACCUCA | 0.002 ± 0.0034 | 0.000269 ± 0.0071
14 | GGAGACCUAUGUAUACAACCUUGUACCUCA | 0.000978 ± 0.0048 | 0.000472 ± 0.0049
15 | GGAGUGGAUACUAUACAACGAUCUACCUCA | 0.000982 ± 0.004 | 0.000978 ± 0.0061
16 | GGAGAGGAAACUAUACAACGUACUACCUCA | 0.0138 ± 0.0051 | 0.27 ± 0.037
17 | GGAGACCUAUGAUAUGUUGGUACCACCUCA | 0.000482 ± 0.016 | 0.000572 ± 0.01
18 | GGAGACCUAUGAUAACAACCUCUACCUCA | 0.00015 ± 0.017 | 0.000173 ± 0.015
19 | GGAGACCUAUGUUUACAACCAACUACCUCA | 0.00317 ± 0.0034 | 0.00085 ± 0.0052
20 | GGAGUGGAUACUAUACAACCUACUAGGACA | 0.000453 ± 0.0073 | 0.000551 ± 0.0082
21 | GGAGACCUAUGAUAUGUUGCUACUACUCA | 0.000359 ± 0.016 | 0.000591 ± 0.011
22 | GGAGACCUAUGAAUACAACCUUCUACCUGA | 0.000652 ± 0.0065 | 0.000256 ± 0.0077
23 | GGAGACCUAUGUAUACAAGCCUACUACCUCA | 0.000525 ± 0.012 | 0.000524 ± 0.0088
24 | GGAGACCUAUCUAUACGAACCUACUACCUCA | 0.000412 ± 0.015 | 0.000205 ± 0.012
25 | GGAGACCUAUGAUUACAACCUACUACGUGA | 0.00102 ± 0.0049 | 0.000793 ± 0.0059
26 | GGAGACCUAUGAUAACAACCUACUACCCA | 0.000213 ± 0.012 | 0.000254 ± 0.012
27 | GGAGACCUAUGAUUACCAACCUACUACCUCA | 0.00284 ± 0.0029 | 0.000645 ± 0.0055

Row | Sequence | pre-steady-state target cleavage rate [1] | pre-steady-state target cleavage rate [2]
28 | GGAGACCUAUGAAUACAACCUACUCCUCA | 0.000326 ± 0.017 | 0.000426 ± 0.011
29 | GGAGAGGAUACUAUACAACCUAGUACCUGA | 0.000865 ± 0.0057 | 0.00274 ± 0.0029
30 | GGAGACCUAUCUAUUGUACCUACUACCUCA | 0.00242 ± 0.0032 | 0.000531 ± 0.015
31 | GGAGACCUAUGAAUACUACCUACUACGUCA | 0.00344 ± 0.0026 | 0.00031 ± 0.0053
32 | GGAGACCUAUCUAUACAGACCUACUACCUCA | 0.000874 ± 0.0077 | 0.000684 ± 0.0085
33 | GGAGACCUAUGAUAUCAACCGACUACCUCA | 0.00134 ± 0.0052 | 0.000541 ± 0.0059
34 | GGAGACCUAUGAUUACAUCCUUCUACCUCA | 0.00314 ± 0.0026 | 0.00151 ± 0.003
35 | GGAGACCUAUGAUAUGUUGGUACUCCUCA | 0.000392 ± 0.009 | 0.000392 ± 0.0094
36 | GGAGACCUAUGUAUACAACCUACAUGCUCA | 0.00215 ± 0.0045 | 0.000263 ± 0.0091
37 | GGAGACCUAUGAUAACAAUCCUACUACCUCA | 0.000428 ± 0.021 | 0.000139 ± 0.027
38 | GGAGACCUAUGUAUACACACCUACUACCUCA | 0.000819 ± 0.0088 | 0.000886 ± 0.0057
39 | GGAGACCUUACUAUACAAGGAACUACCUCA | 0.0034 ± 0.0034 | 0.0034 ± 0.0039
40 | GGAGACCUAUGAUAUCAACCUACUGACCUCA | 0.00235 ± 0.0036 | 0.000961 ± 0.0058
41 | GGAGACGAUACUAUACAUACCUACUACCUCA | 0.00135 ± 0.0059 | 0.000522 ± 0.012
42 | GGAGACCUAUGAUAACUACCAACUACCUCA | 0.000916 ± 0.0067 | 0.000145 ± 0.011
43 | GGAGACCUUACUAUACAACCUCACUACCUCA | 0.00224 ± 0.0046 | 0.00195 ± 0.0035
44 | GGAGACCUAUGAUAACACACCUACUACCUCA | 0.000501 ± 0.015 | 0.000145 ± 0.015
45 | GGAGAGGAUACUAUACAGACCUACUACCUCA | 0.00164 ± 0.0052 | 0.000655 ± 0.0092
46 | GGAGACCUAACUAUACAAGCCUACUACCUCA | 0.000757 ± 0.013 | 0.000231 ± 0.023
47 | GGAGACCUAUGUAUACAACCUACACCUCA | 0.00103 ± 0.006 | 0.000512 ± 0.0083
48 | GGAGACCUAUGAUAUCAUCCUACUUCCUCA | 0.00192 ± 0.0036 | 0.000518 ± 0.0071
49 | GGAGACCUAUGAUAUCAACCUUGAUGGAGA [g10:g15:cont:t1A] | 0.000374 ± 0.011 | 0.000135 ± 0.01
50 | GGAGACCUUACUAUACAACCUCUACCUCA | 0.00247 ± 0.0027 | 0.0014 ± 0.0044
51 | GGAGACCUAUGAUUACAACCUACAUGCUCA | 0.00131 ± 0.005 | 0.000116 ± 0.019
52 | GGAGACCUAUGAUUACAACCUGCUACCUCA | 0.00186 ± 0.0046 | 0.00127 ± 0.0039
53 | GGAGACCUAUGAUAACACCCUACUACCUCA | 0.00217 ± 0.0037 | 0.00232 ± 0.0037
54 | GGAGACCUAUCUAUUCAACCAACUACCUCA | 0.00282 ± 0.004 | 0.0028 ± 0.0036

Full records, quoted from the list.
GGAGACCUAUGUAUACACACCUACUACCUCA as listed: pre-steady-state target cleavage rate [1] = 0.000819 ± 0.0088; pre-steady-state target cleavage rate [2] = 0.000886 ± 0.0057
GGAGACCUUACUAUACAAGGAACUACCUCA as listed: pre-steady-state target cleavage rate [1] = 0.0034 ± 0.0034; pre-steady-state target cleavage rate [2] = 0.0034 ± 0.0039
GGAGAGGAUACUAUACAACCUAGUACCUGA as listed: pre-steady-state target cleavage rate [1] = 0.000865 ± 0.0057; pre-steady-state target cleavage rate [2] = 0.00274 ± 0.0029
GGAGAGGAUACUAUACAGACCUACUACCUCA as listed: pre-steady-state target cleavage rate [1] = 0.00164 ± 0.0052; pre-steady-state target cleavage rate [2] = 0.000655 ± 0.0092
